# Laboratory results from the supplement of paper PMC8104966.
# Values joined by “and” are separate entries in the source; they are usually repeats but may differ in a detail not shown here. Equal entries are not always repeated. Some of the results follow. This data set is noisy: repeats of one test often differ as much as different tests do.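 Fusion between ACE2-bearing and full-length-spike-bearing U2OS cells was measured by imaging as the percentage of nuclei with both cell types' fluorescent markers. An inhibitory hit is a non-toxic compound whose fusion z-score is below -3, more than three standard deviations beneath the plate's DMSO wells.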
# Test system: U2OS ACE2 x SARS-CoV-2 spike co-culture
# Test: cell-cell fusion (fraction fused) z-score vs plate DMSO control; higher = more fusion
# Conditions: 30 µM; 5 h; toxicity class: non-toxic, passed QC
row,Structure (SMILES),cell-cell fusion (z-score)
1,Nc1cccc2c1CN(C1CCC(=O)NC1=O)C2=O (stereo not drawn) [Lenalidomide],inactive: 2.98
2,N[C@H](C(=O)O)[C@H](O)c1ccc(O)c(O)c1 [Droxidopa],inactive: 0.883
3,"O=[N+]([O-])c1cc(O)c(O)c([N+](=O)[O-])c1 [3,5-Dinitrocatechol]",inactive: 0.119
4,CC[C@H]1OC(=O)[C@H](C)[C@@H](O[C@H]2C[C@@](C)(OC)[C@@H](O)[C@H](C)O2)[C@H](C)[C@@H](O[C@@H]2O[C@H](C)C[C@H](NC)[C@H]2O)[C@](C)(O)C[C@@H](C)CN(C)[C@H](C)[C@@H](O)[C@]1(C)O.O,inactive: 0.999 and inactive: 2.37
5,COC(=O)/C(C)=C\CC12OC(C)(C)C3CC(C=C4C(=O)c5c(c(CCC(C)(C)Cl)c6c(c5OC)C5CC(C)(CCC5=C(C)C)O6)OC431)C2=O (stereo not drawn),inactive: 1.26
6,C[C@H]1O[C@H](O[C@H]2[C@H](O)[C@@H](O)[C@@H](O[C@H]3[C@H](O)[C@@H](O)C(O)O[C@@H]3CO)O[C@@H]2CO)[C@H](O)[C@@H](O)[C@@H]1N[C@H]1C=C(CO)[C@@H](O)[C@H](O)[C@H]1O (stereo partly drawn),inactive: 3.03
7,O=c1cc(-c2cccc3c2Sc2ccccc2S3)oc(N2CCOCC2)c1,inactive: -1.41 and inactive: 2.19
8,Cn1nnnc1SCC1=C(C(=O)[O-])N2C(=O)C(NC(=O)C(OC=O)c3ccccc3)C2SC1.[Na+] (stereo not drawn),inactive: 3.2
9,Cc1ccc2c(c1)CC[C@H]1CC(=O)CC[C@]21C,inactive: 2.1
10,CC(=O)Oc1ccc2c(c1)CCC1C2CC[C@]2(C)C(=O)CCC12 (stereo partly drawn),inactive: 2.55
11,COc1cc(-c2coc3cc(O[C@@H]4O[C@H](CO)[C@@H](O)[C@H](O)[C@H]4O)c(OC)c(O)c3c2=O)cc(O)c1OC,inactive: 2.77
12,COc1c(N2CCNC(C)C2)c(F)cc2c(=O)c(C(=O)O)cn(C3CC3)c12 (stereo not drawn) [Gatifloxacin],inactive: 2.52
13,CC(C)NCC(O)COc1ccc(CC(N)=O)cc1 (stereo not drawn),inactive: 0.741
14,Cc1[nH]c(=O)c(C#N)cc1-c1ccc2nccn2c1.Cl [Olprinone hydrochloride],inactive: 1.92
15,O=C(O[C@H]1C[C@H]2CC[C@@H](C1)[N+]21CCCC1)C(O)(c1ccccc1)c1ccccc1.[Cl-] [Trospium chloride],inactive: 3.67
16,Cc1c(O)c(=O)ccn1C [Deferidone],inactive: 1.51
17,CC(=O)[C@H]1CC[C@H]2[C@@H]3CCC4=CC(=O)CC[C@]4(C)[C@H]3CC[C@]12C [Progesterone],inactive: 2.46
18,C=C[C@]1(C)C[C@@H](OC(=O)CS[C@@H]2C[C@H]3CC[C@@H](C2)N3C)[C@]2(C)[C@H](C)CC[C@]3(CCC(=O)[C@H]32)[C@@H](C)[C@@H]1O [Retapamulin],inactive: 2.02
19,NC(=O)OC[C@H](N)Cc1ccccc1 [solriamfetol],inactive: 1.72
20,O=c1ccn([C@@H]2O[C@H](CO)[C@@H](O)[C@H]2O)c(=O)[nH]1,inactive: 1.75
21,O=C1CCC(c2ccc(-n3ccnc3)cc2)=NN1 [Imazodan],inactive: 1.02
22,COc1cc(/C=C/C(=O)O)cc(OC)c1O,inactive: 1.75
23,CS(=O)(=O)O.O.O=C(O[C@H]1C[C@H]2CC3C[C@@H](C1)N2CC3=O)c1c[nH]c2ccccc12 [Dolasetron mesylate hydrate],inactive: 0.789

row,Structure (SMILES),cell-cell fusion (z-score)
1,OCC(O)CN1CCN(c2ccccc2)CC1 (stereo not drawn),inactive: 0.858
2,COC(=O)c1c(C)[nH]c(C)c1C(=O)c1ccccc1Cc1ccccc1,inactive: -1.32
3,CCN(CC)CCc1nc(-c2ccccc2)no1.O=C(O)CC(O)(CC(=O)O)C(=O)O,inactive: 1.88
4,Cc1ccc(S(=O)(=O)NC(=O)NN2CCCCCC2)cc1,inactive: 0.998
5,Cc1ccc(S(=O)(=O)NC(=O)NN2CCCCCC2)cc1 [Tolazamide],inactive: 1.41
6,CO[C@@H]1[C@@H](OC(N)=O)[C@@H](O)[C@H](Oc2ccc3c([O-])c(NC(=O)c4ccc(O)c(CC=C(C)C)c4)c(=O)oc3c2C)OC1(C)C.[Na+],inactive: 2.02
7,Cl.O=C(CCCCCN1CCN(c2ccccc2-c2ccccc2)CC1)NC1CCCc2ccccc21 (stereo not drawn) [LP 12 hydrochloride hydrate],inactive: 0.015
8,Cl.O=S(=O)(c1cccc2c(Cl)cccc12)N1CCCNCC1,inactive: -1.95
9,CCc1cc(-c2n[nH]c(C)c2-c2ccc3c(c2)OCCO3)c(O)cc1O,inactive: -1.25
10,COc1cc2c(cc1OC)C(=O)OC2,inactive: 1.33
11,"Cc1cccc(C(=O)NCN2CCN(c3ccccc3C#N)CC2)c1.O=C(O)/C=C\C(=O)O [PD 168,077 maleate]",inactive: 1.2
12,CC(C)C[C@H](NC(=O)CNC(=O)c1cc(Cl)ccc1Cl)B1OC(=O)CC(CC(=O)O)(C(=O)O)O1 (stereo partly drawn),inactive: 2.93
13,CC(=O)[C@@]1(O)CCC2C3CCC4=CC(=O)CC[C@]4(C)C3CC[C@@]21C (stereo partly drawn),inactive: 0.309
14,O=C(O)c1ccccc1C(=O)Nc1ccc(S(=O)(=O)Nc2nccs2)cc1,inactive: 0.391
15,CC(C)C[C@H](N)C(=O)O [L-Leucine],inactive: 2.34
16,CC(C)C[C@H](N)C(=O)O,inactive: 2.19
17,O=S(=O)([O-])CCSSCCS(=O)(=O)[O-].[Na+].[Na+],inactive: 2.23
18,Cc1ccc(S(=O)(=O)N[C@@H](CCCCN)C(=O)CCl)cc1.Cl [Na-p-Tosyl-L-lysine chloromethyl ketone hydrochloride],inactive: 0.159
19,CC(=O)O[C@H]1C[C@@H](OC(C)=O)C(C)(C)C2C[C@@H](OC(C)=O)[C@@]3(C)C4=CC(=O)O[C@@H](c5ccoc5)[C@]4(C)CCC3[C@]21C (stereo partly drawn),inactive: 3.24
20,O=C(O)c1ccc2cc(-c3ccc(O)c(C45CC6CC(CC(C6)C4)C5)c3)ccc2c1,inactive: 3.05
21,O=C(O)c1cc(-c2ccccc2)nc2ccccc12,inactive: 2.44
22,CCC(=O)Nc1cccc(Oc2nc(Nc3ccc(N4CCN(C)CC4)cc3OC)ncc2Cl)c1,inactive: 0.512
23,CNCCc1c[nH]c2ccc(O)cc12.O=C(O)C(=O)O [N-omega-Methyl-5-hydroxytryptamine oxalate salt],inactive: 2.81

row,Structure (SMILES),cell-cell fusion (z-score)
1,OCC(O)COc1ccc(Cl)cc1 (stereo not drawn) [Chlorphenesin],inactive: 2.07
2,COc1ccc(-c2coc3cc(O)cc(OC)c3c2=O)cc1,inactive: 1.13
3,Cl.Cn1c(CCCC(=O)O)nc2cc(N(CCCl)CCCl)ccc21 [Bendamustine hydrochloride],inactive: 3.41
4,Cl.O=C1CC2(CCCC2)CC(=O)N1CCCCN1CCN(c2ncccn2)CC1 [Buspirone hydrochloride],inactive: 2.05
5,Cl.O=C1CC2(CCCC2)CC(=O)N1CCCCN1CCN(c2ncccn2)CC1,inactive: 4.6
6,COCCOc1cc2nc[nH]c(=O)c2cc1OCCOC,inactive: 1.67
7,CC(=O)NCCc1c[nH]c2ccccc12 [N-Acetyltryptamine],inactive: 2.75
8,COC(=O)C1=CO[C@@H](O[C@@H]2O[C@H](CO)[C@@H](O)[C@H](O)[C@H]2O)[C@H]2C1C(=O)C[C@@H]2C (stereo partly drawn),inactive: 2.29
9,C[C@@H](CN1CCC(Cc2ccccc2)CC1)[C@@H](O)c1ccc(O)cc1.Cl [Ro 25-6981 hydrochloride],inactive: 1.46
10,C[C@]12CC[C@H]3[C@@](O)(C1)OC(O2)[C@]3(COC(=O)c1ccccc1)O[C@@H]1O[C@H](CO)[C@@H](O)[C@H](O)[C@H]1O,inactive: 2.31
11,COc1ccc(CC(C)(C)NC[C@H](O)c2cc(O)cc3c2OCC(=O)N3)cc1.Cl [BI 1744 hydrochloride],inactive: -0.583
12,C[C@]12CCC(=O)C=C1CCC1C2[C@@H](O)C[C@@]2(C)C1CC[C@]2(O)C(=O)CO (stereo partly drawn),inactive: 0.588
13,O=c1ccn([C@@H]2O[C@H](CO)[C@@H](O)[C@H]2O)c(=O)[nH]1 [Uridine],inactive: 3.61
14,Nc1ccn([C@@H]2O[C@H](CO)[C@@H](O)C2(F)F)c(=O)n1 [Gemcitabine],inactive: 1.95
15,C=CCN1CC[C@]23CCCCC2[C@H]1Cc1ccc(O)cc13.O=C(O)C(O)C(O)C(=O)O (stereo partly drawn) [Levallorphan tartrate],inactive: 1.99
16,N[C@@H]1CCCC[C@H]1N.O=C1[O][Pt][O]C1=O [Oxaliplatin (Eloxatin)],inactive: 2.25
17,C[C@](Cc1ccc(O)c(O)c1)(NN)C(=O)O [S-(-)-Carbidopa],inactive: 2.02
18,N#CCNC(=O)c1ccc(-c2ccnc(Nc3ccc(N4CCOCC4)cc3)n2)cc1,inactive: 0.489 and inactive: -1.83
19,CC(=O)NCCCS(=O)(=O)[O-].CC(=O)NCCCS(=O)(=O)[O-].[Ca+2],inactive: 2.08
20,CN1C(=O)C(Cc2c[nH]c3ccccc23)NC1=S (stereo not drawn) [Necrostatin-1],inactive: 1.13
21,O=C([O-])c1ccccc1O.[Na+],inactive: 0.527
22,CN(C)C(=O)[C@H](O)[C@H](Cc1ccccc1)NC(=O)c1cc2cc(Cl)ccc2[nH]1,inactive: -0.726

# As a working copy, part of the list above:
row,Structure (SMILES),cell-cell fusion (z-score)
6,COCCOc1cc2nc[nH]c(=O)c2cc1OCCOC,inactive: 1.67
7,CC(=O)NCCc1c[nH]c2ccccc12 [N-Acetyltryptamine],inactive: 2.75
8,COC(=O)C1=CO[C@@H](O[C@@H]2O[C@H](CO)[C@@H](O)[C@H](O)[C@H]2O)[C@H]2C1C(=O)C[C@@H]2C (stereo partly drawn),inactive: 2.29
9,C[C@@H](CN1CCC(Cc2ccccc2)CC1)[C@@H](O)c1ccc(O)cc1.Cl [Ro 25-6981 hydrochloride],inactive: 1.46
10,C[C@]12CC[C@H]3[C@@](O)(C1)OC(O2)[C@]3(COC(=O)c1ccccc1)O[C@@H]1O[C@H](CO)[C@@H](O)[C@H](O)[C@H]1O,inactive: 2.31
11,COc1ccc(CC(C)(C)NC[C@H](O)c2cc(O)cc3c2OCC(=O)N3)cc1.Cl [BI 1744 hydrochloride],inactive: -0.583
12,C[C@]12CCC(=O)C=C1CCC1C2[C@@H](O)C[C@@]2(C)C1CC[C@]2(O)C(=O)CO (stereo partly drawn),inactive: 0.588
13,O=c1ccn([C@@H]2O[C@H](CO)[C@@H](O)[C@H]2O)c(=O)[nH]1 [Uridine],inactive: 3.61
14,Nc1ccn([C@@H]2O[C@H](CO)[C@@H](O)C2(F)F)c(=O)n1 [Gemcitabine],inactive: 1.95
15,C=CCN1CC[C@]23CCCCC2[C@H]1Cc1ccc(O)cc13.O=C(O)C(O)C(O)C(=O)O (stereo partly drawn) [Levallorphan tartrate],inactive: 1.99
16,N[C@@H]1CCCC[C@H]1N.O=C1[O][Pt][O]C1=O [Oxaliplatin (Eloxatin)],inactive: 2.25
17,C[C@](Cc1ccc(O)c(O)c1)(NN)C(=O)O [S-(-)-Carbidopa],inactive: 2.02
18,N#CCNC(=O)c1ccc(-c2ccnc(Nc3ccc(N4CCOCC4)cc3)n2)cc1,inactive: 0.489 and inactive: -1.83
19,CC(=O)NCCCS(=O)(=O)[O-].CC(=O)NCCCS(=O)(=O)[O-].[Ca+2],inactive: 2.08
20,CN1C(=O)C(Cc2c[nH]c3ccccc23)NC1=S (stereo not drawn) [Necrostatin-1],inactive: 1.13
21,O=C([O-])c1ccccc1O.[Na+],inactive: 0.527
22,CN(C)C(=O)[C@H](O)[C@H](Cc1ccccc1)NC(=O)c1cc2cc(Cl)ccc2[nH]1,inactive: -0.726
